Earlier results in patent US20240285638A1, “METHODS FOR TREATING FACIOSCAPULOHUMERAL MUSCULAR DYSTROPHY (FSHD)” (RESEARCH INSTITUTE AT NATIONWIDE CHILDREN'S HOSPITAL, priority 2021, published 2024).
For at least one compound, name, drawing or mass did not settle the structure.

Columns and labels:
[1] = test system: Tax-activated NF-κB pathway; settings: literature (Dasgupta et al.); cited from earlier work
[2] = test system: HTLV-1-transformed lymphocytes; settings: HTLV-1-transformed vs control lymphocytes; literature (Dasgupta et al.); cited from earlier work

Compound: Nc1ncnc2c1ncn2C(C=O)OC(C=O)CO (centres unmarked) [AdOx, adenosine dialdehyde]
- effect on Tax-activated NF-κB pathway [1]: inhibited the Tax-activated NF-κB pathway
- cell cycle arrest and cell death [2]: induced G2/M cell cycle arrest and cell death in HTLV-1-transformed but not control lymphocytes
